Experimental data from article PMC11045800.

Biological target: T1, Myc-tagged recombinant PERK (mouse) (UniProt Q9Z2B5)
T1 sequence: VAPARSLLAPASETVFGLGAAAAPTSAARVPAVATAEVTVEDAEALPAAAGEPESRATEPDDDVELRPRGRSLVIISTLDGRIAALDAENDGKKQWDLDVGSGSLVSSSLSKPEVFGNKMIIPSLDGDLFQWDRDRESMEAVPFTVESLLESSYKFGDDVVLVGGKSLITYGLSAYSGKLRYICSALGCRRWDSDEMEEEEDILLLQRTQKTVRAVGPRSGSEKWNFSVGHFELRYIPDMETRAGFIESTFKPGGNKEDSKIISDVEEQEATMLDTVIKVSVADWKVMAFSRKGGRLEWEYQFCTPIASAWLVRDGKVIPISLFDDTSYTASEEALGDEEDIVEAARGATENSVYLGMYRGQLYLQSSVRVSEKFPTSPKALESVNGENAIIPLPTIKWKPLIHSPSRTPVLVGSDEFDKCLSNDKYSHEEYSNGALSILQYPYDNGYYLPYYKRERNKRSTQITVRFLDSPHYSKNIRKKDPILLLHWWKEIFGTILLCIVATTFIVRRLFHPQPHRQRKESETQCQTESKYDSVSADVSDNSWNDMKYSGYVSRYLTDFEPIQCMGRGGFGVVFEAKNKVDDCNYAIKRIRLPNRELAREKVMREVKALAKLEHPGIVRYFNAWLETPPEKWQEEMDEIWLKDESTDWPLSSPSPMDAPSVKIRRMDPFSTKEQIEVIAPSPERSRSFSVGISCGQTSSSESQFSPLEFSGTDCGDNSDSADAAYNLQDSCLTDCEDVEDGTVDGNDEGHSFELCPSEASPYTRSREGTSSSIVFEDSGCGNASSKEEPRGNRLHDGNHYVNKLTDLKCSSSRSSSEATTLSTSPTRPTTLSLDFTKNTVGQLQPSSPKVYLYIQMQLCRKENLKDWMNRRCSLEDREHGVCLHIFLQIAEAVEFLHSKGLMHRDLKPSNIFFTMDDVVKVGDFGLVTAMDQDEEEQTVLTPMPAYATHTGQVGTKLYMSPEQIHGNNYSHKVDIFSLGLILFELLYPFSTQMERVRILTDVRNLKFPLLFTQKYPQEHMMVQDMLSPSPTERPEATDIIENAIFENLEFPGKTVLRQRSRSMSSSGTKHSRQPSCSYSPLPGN
Test: co-IP; in vitro: HA- and Myc-tagged proteins purified from transfected HEK293T cells (eluted from anti-HA or anti-Myc beads), incubated together for 2 h, precipitated with anti-Myc beads, blot with anti-HA; both purified

**Q.** For “HA-tagged TRIM29 C mutant (C-terminal domain of TRIM29) (domain or fragment)”, which binding is on record?
**A.** binds

No constants are given. Whether binding was seen depends on the method and setting. In cells and extracts the contact can be indirect. Binding calls can cover weak binding; strength is not graded here. Where a sequence is shown, tags or fusion partners need not be part of it.
